This is a selection; strong and weak results do not stand in their true shares. At the low end of the ranking the order means little.
Molecular target: ETV5 (UniProt P41161)
Experiment: DAPPL (digital affinity profiling via proximity ligation, sequencing)
Details: 10 mM Tris-HCl pH 7.5, 50 mM NaCl, 1 mM DTT, 4% glycerol, room temperature, 30 min; GST-TFs on glutathione beads, 16-mer random dsDNA library, 0.1% …; high values mean tight binding; double strand, one strand shown; scale: fold enrichment (6-mer frequency, TF over GST control)

Sequences of proteins named here, by UniProt entry; tags and fusion partners are left off. A change or cut given only in a name is not applied to a line headed by its entry.
UniProt P41161: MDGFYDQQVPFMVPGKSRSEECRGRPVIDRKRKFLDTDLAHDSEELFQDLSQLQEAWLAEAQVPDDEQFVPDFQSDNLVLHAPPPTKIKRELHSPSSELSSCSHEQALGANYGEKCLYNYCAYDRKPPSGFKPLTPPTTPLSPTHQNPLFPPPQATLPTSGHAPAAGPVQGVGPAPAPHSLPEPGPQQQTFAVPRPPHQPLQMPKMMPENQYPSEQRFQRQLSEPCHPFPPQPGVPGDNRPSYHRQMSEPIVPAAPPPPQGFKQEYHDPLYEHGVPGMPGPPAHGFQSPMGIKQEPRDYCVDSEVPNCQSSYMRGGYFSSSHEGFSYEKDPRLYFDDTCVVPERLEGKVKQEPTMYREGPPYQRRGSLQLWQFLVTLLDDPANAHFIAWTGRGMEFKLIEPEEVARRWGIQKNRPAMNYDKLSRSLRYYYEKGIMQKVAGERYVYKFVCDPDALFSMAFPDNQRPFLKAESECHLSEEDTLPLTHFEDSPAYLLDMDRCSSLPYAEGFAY

How did the binding signal turn out when TGGTTG was run?
The binding signal was 0.96.

For CTTTGT, which binding signal is on record?
The binding signal was 1.3.

Which binding signal does the source give for TCGACG here?
Its binding signal is 1.17.

Which binding signal does the source give for ATTTGC here?
The binding signal was 1.4.

For CATGAT, which binding signal is on record?
The binding signal was 1.08.

AACTCA was tested. Which binding signal did it give?
Its binding signal is 1.25.

Which binding signal does the source give for AGTTTT here?
The binding signal was 0.991.

AAGGTT was tested. Which binding signal did it give?
Its binding signal is 1.01.

With ATCTGC as the sequence, how does the binding signal read?
The binding signal was 1.46.

Which binding signal does the source give for CGTACA here?
Its binding signal is 1.22.

TTCGCG was tested. Which binding signal did it give?
Its binding signal is 1.04.

With TATGTT as the sequence, how does the binding signal read?
Its binding signal is 1.15.

For CGTTAT, which binding signal is on record?
The binding signal was 1.15.

With ACCAAA as the sequence, how does the binding signal read?
Its binding signal is 1.03.

Which binding signal does the source give for AAACGA here?
Its binding signal is 1.1.

With CTCGAA as the sequence, how does the binding signal read?
The binding signal was 1.2.

TCCGTC was tested. Which binding signal did it give?
The binding signal was 1.31.

With TTCATG as the sequence, how does the binding signal read?
Its binding signal is 1.27.

GAATTG was tested. Which binding signal did it give?
Its binding signal is 1.18.

How did the binding signal turn out when CTCCAT was run?
The binding signal was 1.43.

With CGCACT as the sequence, how does the binding signal read?
Its binding signal is 1.28.

With CTATGC as the sequence, how does the binding signal read?
The binding signal was 1.38.

Which binding signal does the source give for TGGTCA here?
The binding signal was 1.02.

GTTCAA was tested. Which binding signal did it give?
Its binding signal is 1.14.

How did the binding signal turn out when AATCTA was run?
Its binding signal is 1.12.

With TCCATA as the sequence, how does the binding signal read?
Its binding signal is 1.3.

CAAGCA was tested. Which binding signal did it give?
The binding signal was 1.17.

With GCTTCT as the sequence, how does the binding signal read?
Its binding signal is 1.57.

CACTAT was tested. Which binding signal did it give?
Its binding signal is 1.2.

For TAGAAA, which binding signal is on record?
Its binding signal is 1.03.

For CCCTTA, which binding signal is on record?
The binding signal was 1.28.

How did the binding signal turn out when TCAGCT was run?
Its binding signal is 0.981.

For AAATAC, which binding signal is on record?
The binding signal was 1.43.

With GGTAAC as the sequence, how does the binding signal read?
The binding signal was 0.968.

How did the binding signal turn out when CTTACA was run?
The binding signal was 1.31.

TGACCA was tested. Which binding signal did it give?
The binding signal was 1.23.

With AGCATT as the sequence, how does the binding signal read?
The binding signal was 1.03.

For CGAACT, which binding signal is on record?
Its binding signal is 1.19.

For TTGCCA, which binding signal is on record?
Its binding signal is 0.987.

With ATAACC as the sequence, how does the binding signal read?
The binding signal was 1.21.
